This passage reports percent effect results from the supplement of paper PMC8256030.

The list shows a part of the results. Repeats in this data set agree poorly, so a single value says little.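 HEK293T cells were given each compound shortly before transfection with a reporter in which red mCherry is followed by the SARS-CoV-2 frameshift element and then GFP in the −1 frame, so GFP appears only after frameshifting.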

The assay has as its system SARS-CoV-2 -1 PRF reporter mCherry-FSE-GFP(-1). Nature of the assay: percent effect, decrease of GFP/mCherry ratio (-1 PRF reporter) relative to controls; higher = stronger frameshift inhibition. The note with it: 10 µM; 24 h; HEK293T.
With `NC(=O)c1ncn([C@@H]2O[C@H](CO)[C@@H](O)[C@H]2O)c1O` [mizoribine], the percent effect was -0.76%.
Next, `COc1cc([C@@H]2c3cc4c(cc3[C@@H](O[C@@H]3O[C@@H]5CO[C@@H](c6cccs6)O[C@H]5[C@H](O)[C@H]3O)[C@H]3COC(=O)[C@H]23)OCO4)cc(OC)c1O`: -2.65%.
Next, `CCC1=C[C@@H]2CN(C1)Cc1c([nH]c3ccccc13)[C@@](C(=O)OC)(c1cc3c(cc1OC)N(C)[C@H]1[C@@](O)(C(=O)OC)[C@H](OC(C)=O)[C@]4(CC)C=CCN5CC[C@]31[C@@H]54)C2` [Vinorelbine]: -4.33%; `O=C(/C=C/c1ccc2c(c1)OCO2)N1CCN(CC(=O)N2CCCC2)CC1` [cinoxopazide]: -0.358%; `CN(C)CCN(Cc1ccccc1)c1nc2ccccc2o1` [oxadimedine]: 1.13%.
As for `N[C@@H](Cc1ccc(O)cc1)C(=O)O`, the figure is 1.15%.
As to `Cc1ccccc1C(=O)Nc1ccc(C(=O)N2CCCC(N(C)C)c3ccccc32)cc1` (configuration not stated) [mozavaptan], the percent effect is -8.57%.
Next, `Clc1cc(-c2ccccc2)ccc1OCCCN1CCOCC1` [chlordimorine]: -4.85%; `CCC(=O)c1ccc2c(c1)N(CCCN1CCN(CCO)CC1)c1ccccc1S2` [carfenazine]: -6.49%.
As for `NC(=O)NC1NC(=O)NC1=O` (configuration not stated), the figure is -0.493%; as for `CCN(CC)C(=O)C1(c2ccccc2)CC1CN` (configuration not stated), 0.398%; as for `CCNC(=O)[C@@H]1CCCN1C(=O)[C@H](CCCNC(=N)N)NC(=O)[C@H](CC(C)C)NC(=O)[C@@H](Cc1cn(Cc2ccccc2)cn1)NC(=O)[C@H](Cc1ccc(O)cc1)NC(=O)[C@H](CO)NC(=O)[C@H](Cc1c[nH]c2ccccc12)NC(=O)[C@H](Cc1cnc[nH]1)NC(=O)[C@@H]1CCC(=O)N1` [histrelin], -3.62%.
